The values that follow come from paper PMC9709281.

The data set addresses T1, ETS1 (Homo sapiens (primary CD4+ T cells)) (UniProt P14921).
T1 sequence (looked up, limits assumed): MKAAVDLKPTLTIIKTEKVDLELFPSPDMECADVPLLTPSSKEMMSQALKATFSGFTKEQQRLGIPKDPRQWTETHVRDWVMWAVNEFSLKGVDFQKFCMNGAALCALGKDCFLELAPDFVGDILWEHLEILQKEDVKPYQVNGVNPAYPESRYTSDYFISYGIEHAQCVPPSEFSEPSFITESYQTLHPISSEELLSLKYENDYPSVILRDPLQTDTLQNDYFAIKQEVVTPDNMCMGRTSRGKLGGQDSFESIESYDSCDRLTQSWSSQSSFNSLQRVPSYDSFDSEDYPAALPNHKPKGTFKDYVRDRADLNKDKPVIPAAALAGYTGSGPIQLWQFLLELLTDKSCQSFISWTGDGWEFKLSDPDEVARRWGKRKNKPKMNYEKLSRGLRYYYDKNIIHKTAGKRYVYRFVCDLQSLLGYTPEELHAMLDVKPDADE
The data set is described as follows: EMSA supershift. The following applies: ETS1 antibody, additional C-specific supershifted complex; 3-6 ug CD4+ T cell nuclear extract, 250 fmol probe, 0.25 mg/ml poly(dI-dC), 20% glycerol, 5 mM MgCl2, 2.5 mM EDTA, 2.5 mM DTT, 250 mM NaCl, 50 mM Tris pH 7.5, 25 C; protein in an extract; label: 5' IRD700.

The exact form of at least one protein or probe is not confirmed. Results from cells or extracts need not show a direct contact. Tags and fusion partners may be left off the protein sequences shown.

Turning to “CTTGTCACTTCCTCCTGTACTG (double strand) [rs2149092 C (risk) probe]”, the binding result is on record as “binds”.
